# Data as given in PubChem BioAssay AID1259308 (NCATS, 2017)
# Aim: 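Knock-downs that increase output of a recombinant reporter protein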 (primary screen)
# Cell system: human HEK293 embryonic kidney cells stably expressing firefly luciferase (HEK-CMV-Luc2-Hygro)
# Knock-down reagent: single siRNA against human genes, 0.8 pmol siRNA per well
# Time to read-out: 72 h
# Measured: 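Luciferase light (ONE-Glo) measured on one replicate plate set and viability (CellTiter-Glo) on the other, scaled to a negative control siRNA, with robust z-scores and luciferase per cell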
# Scale: total luciferase, z-score and total luciferase, % of control: higher = more reporter protein produced; luciferase per cell, z-score: higher = more reporter output per viable cell; viable cells, % of control: higher = more viable cells
# Active means: 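An siRNA counts as active if its total luciferase robust z-score exceeds 3; genes with two or more such siRNAs out of three were retested with fresh siRNAs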
# Meaning of the calls: active = raised luciferase; inactive = no rise
# In all, the deposit lists about 59,000 reagents; shown is a random part of them. Over the whole deposit, about 1,510 (2.6%) are marked active. 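Calls use total luciferase alone and ignore viability, so some active siRNAs may act by altering cell number.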 The numbers tell different reagents against one gene apart.
"total luciferase, z-score","total luciferase, % of control","luciferase per cell, z-score","viable cells, % of control",Call,Target gene,siRNA no.
-1.23,57.4,-0.996,83.4,inactive,ANAPC2,1
-1.4,54.1,-0.729,73.3,inactive,ANAPC2,2
-1.27,56.6,-1.29,88.8,inactive,ANAPC2,3
0.315,88.1,0.224,92.9,inactive,RPE65,1
1.23,106,1.15,87.9,inactive,RPE65,2
-0.183,78.3,0.121,84.7,inactive,RPE65,3
0.579,93.4,-0.0692,106,inactive,TLR4,1
0.684,95.5,0.192,101,inactive,TLR4,2
0.358,89,0.757,81.5,inactive,TLR4,3
-1.22,57.5,-0.671,76.7,inactive,POLK,1
-0.75,67,-0.886,94.5,inactive,POLK,2
1.3,108,0.649,102,inactive,POLK,3
-1.22,57.5,-1.02,84.1,inactive,PGBD5,1
2.02,122,1.71,87,inactive,PGBD5,2
-0.26,76.7,0.119,83.1,inactive,PGBD5,3
-0.818,65.6,-0.863,92,inactive,PDGFRL,1
2.34,128,1.38,99.7,inactive,PDGFRL,2
-1.28,56.5,-1.04,83.1,inactive,PDGFRL,3
-0.534,71.3,-0.218,84.3,inactive,FKBP7,1
2.98,141,3.19,68.1,inactive,FKBP7,2
0.234,86.5,0.0281,96,inactive,FKBP7,3
0.0344,82.6,0.000426,92.3,inactive,ITGB5,1
0.188,85.6,-0.421,107,inactive,ITGB5,2
-1.58,50.5,-2,95.5,inactive,ITGB5,3

As entered above:
Entry of ANAPC2 #1 in “total luciferase, z-score”: -1.23
Under “luciferase per cell, z-score”, ANAPC2 #3 shows -1.29
FKBP7 #3, total luciferase, z-score → 0.234
RPE65 #3, total luciferase, z-score = -0.183
For “viable cells, % of control”, FKBP7 #2 is entered as 68.1
Value of PGBD5 #2 in “viable cells, % of control”: 87

The list goes on:
"total luciferase, z-score","total luciferase, % of control","luciferase per cell, z-score","viable cells, % of control",Call,Target gene,siRNA no.
0.181,85.5,-0.222,101,inactive,DIO3,1
1.52,112,1.42,86.3,inactive,DIO3,2
0.351,88.9,0.056,97.8,inactive,DIO3,3
0.708,96,-0.00509,107,inactive,GIPR,1
0.745,96.7,0.729,89.2,inactive,GIPR,2
1.34,109,1.24,87.5,inactive,GIPR,3
-0.603,69.9,1.27,55.9,inactive,IFI27L2,1
-1.02,61.5,-0.22,72.9,inactive,IFI27L2,2
-0.0995,79.9,0.522,77.8,inactive,IFI27L2,3
-0.332,75.3,-0.344,92.1,inactive,GRAMD1B,1
-2.03,41.5,-2.35,86.3,inactive,GRAMD1B,2
-0.64,69.2,-0.33,84.3,inactive,GRAMD1B,3
-0.41,73.7,-0.242,87.8,inactive,PKP2,1
0.787,97.5,0.379,98.6,inactive,PKP2,2
0.365,89.1,1.43,68.3,inactive,PKP2,3
-0.341,75.1,-0.167,87.7,inactive,KRT16,1
-0.505,71.8,-0.299,86.9,inactive,KRT16,2
2.45,131,1.86,89.5,inactive,KRT16,3
0.508,92,0.324,94.4,inactive,TIAM2,1
-1.84,45.4,-1.68,79,inactive,TIAM2,2
1.73,116,1.64,84.4,inactive,TIAM2,3
0.384,89.5,-0.0559,102,inactive,PRADC1,1
-0.635,69.3,-0.378,85.5,inactive,PRADC1,2
-0.16,78.7,1.51,59.1,inactive,PRADC1,3
2.21,126,1.79,87.7,inactive,TPTE2P1,1
-0.192,78.1,-0.687,105,inactive,TPTE2P1,2
1.21,106,1.25,85.3,inactive,TPTE2P1,3
0.269,87.2,0.53,84.8,inactive,HIVEP3,1
0.16,85.1,0.171,90.9,inactive,HIVEP3,2
1.32,108,1.05,91.6,inactive,HIVEP3,3
-0.438,73.2,0.179,78,inactive,SMOX,1
0.337,88.6,0.597,84.6,inactive,SMOX,2
0.0669,83.2,-0.0237,93.6,inactive,SMOX,3
